Results from patent US20150052630A1, “Methods and Compositions for Obtaining Useful Plant Traits” (Board of Regents of the University of Nebraska, priority 2013, published 2015).

Target: RNA binding protein; mRNA processing, RNA processing (AT3G11964) (Arabidopsis)
Experiment: yeast 2-hybrid

binding: binds
B1: Arabidopsis MSH1 (MUTS HOMOLOG 1), full-length (protein)
chain: MHWIATRNAVVSFPKWRFFFRSSYRTYSSLKPSSPILLNRRYSEGISCLRDGKSLKRITTASKKVKTSSDVLTDKDLSHLVWWKERLQTCKKPSTLQLIERLMYTNLLGLDPSLRNGSLKDGNLNWEMLQFKSRFPREVLLCRVGEFYEAIGIDACILVEYAGLNPFGGLRSDSIPKAGCPIMNLRQTLDDLTRNGYSVCIVEEVQGPTPARSRKGRFISGHAHPGSPYVYGLVGVDHDLDFPDPMPVVGISRSARGYCMISIFETMKAYSLDDGLTEEALVTKLRTRRCHHLFLHASLRHNASGTCRWGEFGEGGLLWGECSSRNFEWFEGDTLSELLSRVKDVYGLDDEVSFRNVNVPSKNRPRPLHLGTATQIGALPTEGIPCLLKVLLPSTCSGLPSLYVRDLLLNPPAYDIALKIQETCKLMSTVTCSIPEFTCVSSAKLVKLLEQREANYIEFCRIKNVLDDVLHMHRHAELVEILKLLMDPTWVATGLKIDFDTFVNECHWASDTIGEMISLDENESHQNVSKCDNVPNEFFYDMESSWRGRVKGIHIEEEITQVEKSAEALSLAVAEDFHPIISRIKATTASLGGPKGEIAYAREHESVWFKGKRFTPSIWAGTAGEDQIKQLKPALDSKGKKVGEEWFTTPKVEIALVRYHEASENAKARVLELLRELSVKLQTKINVLVFASMLLVISKALFSHACEGRRRKWVFPTLVGFSLDEGAKPLDGASRMKLTGLSPYWFDVSSGTAVHNTVDMQSLFLLTGPNGGGKSSLLRSICAAALLGISGLMVPAESACIPHFDSIMLHMKSYDSPVDGKSSFQVEMSEIRSIVSQATSRSLVLIDEICRGTETAKGTCIAGSVVESLDTSGCLGIVSTHLHGIFSLPLTAKNITYKAMGAENVEGQTKPTWKLTDGVCRESLAFETAKREGVPESVIQRAEALYLSVYAKDASAEVVKPDQIITSSNNDQQIQKPVSSERSLEKDLAKAIVKICGKKMIEPEAIECLSIGARELPPPSTVGSSCVYVMRRPDKRLYIGQTDDLEGRIRAHRAKEGLQGSSFLYLMVQGKSMACQLETLLINQLHEQGYSLANLADGKHRNFGTSSSLSTSDVVSIL

These are yes or no findings as the source states them, for the method shown. A result given as binding can be weak or reduced; the word gives no strength.
